Patent US20100248265A1, “COMPOSITIONS AND METHODS FOR DIAGNOSIS AND TREATMENT OF CANCER” (The Salk Institute for Biological Studies, priority 2009, published 2010)
At least one compound was matched to its structure with a doubt left.

Tested on: Akt
Test: Immunoblot of whole cell lysates for Akt phosphorylated on S473 (rapamycin treatment)
Format: cell-based

Question: With `CO[C@H]1C[C@@H]2CC[C@@H](C)[C@@](O)(O2)C(=O)C(=O)N2CCCC[C@H]2C(=O)O[C@H]([C@H](C)C[C@@H]2CC[C@@H](O)[C@H](OC)C2)CC(=O)[C@H](C)/C=C(\C)[C@@H](O)[C@@H](OC)C(=O)[C@H](C)C[C@H](C)/C=C/C=C/C=C/1C` [rapamycin] as the compound, how does the “S473 phosphorylation of Akt” value (C2C12 myoblasts and HepG2 cells, 100 nM rapamycin, 1 or 24 hr) read?
Answer: Its value is “sensitive”.

Question: And the “Akt S473 phosphorylation” value (MDA-MB-231, MDA-MB-468, SKBR3 and A549 cells, 100 nM rapamycin for 24 hr)?
Answer: The value was “remained unchanged or increased”.

Question: What about the “S473 phosphorylation of Akt” value (MDA-MB-468 cells depleted of mTORC2 (shRNA), 100 nM rapamycin 24 hr (FIG. 4 legend)) of the same compound?
Answer: Its value is “sensitive”.

Question: And the “S473 phosphorylation of Akt upon rapamycin treatment” value (MDA-MB-468 cells with partial depletion of Rictor (shRNA), 100 nM rapamycin 24 hr)?
Answer: Its value is “mild, yet reproducible decrease”.

Question: And the “S473 phosphorylation of Akt upon prolonged rapamycin treatment” value (MDA-MB-468 cells with partial depletion of mSin1 (shRNA), 100 nM rapamycin 24 hr)?
Answer: The value was “much more profound effect”.

Question: And the “amount of Akt phosphorylated on S473” value (several of the cancer cell lines tested, prolonged rapamycin treatment)?
Answer: Its value is “either increased or remained unchanged”.
